PubChem BioAssay AID1259308 – NCATS | 2017
This is one part, drawn at random, of about 59,000 deposited reagents. Of all reagents, about 1,510 (2.6%) got an active call. 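Calls use total luciferase alone and ignore viability, so some active siRNAs may act by altering cell number.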 Reagent sequences are not shown.

Purpose: 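Genes whose loss raises luciferase production in HEK293 cells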 (primary screen)
Cell system: human HEK293 embryonic kidney cells stably expressing firefly luciferase (HEK-CMV-Luc2-Hygro)
Reagent: single siRNA against human genes, 0.8 pmol siRNA per well
Time to read-out: 72 h
Measurement: 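Luciferase light (ONE-Glo) measured on one replicate plate set and viability (CellTiter-Glo) on the other, scaled to a negative control siRNA, with robust z-scores and luciferase per cell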
Scale: total luciferase, z-score and total luciferase, % of control: higher = more reporter protein produced; luciferase per cell, z-score: higher = more reporter output per viable cell; viable cells, % of control: higher = more viable cells
Active means: 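An siRNA counts as active if its total luciferase robust z-score exceeds 3; genes with two or more such siRNAs out of three were retested with fresh siRNAs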
Calls: active = raised luciferase; inactive = no rise

total luciferase, z-score	total luciferase, % of control	luciferase per cell, z-score	viable cells, % of control	call	gene	PubChem SID
0.478	91.4	0.563	88.1	inactive	USP8P1 (USP8 pseudogene 1)	SID160774331
-0.301	75.9	-0.134	87.9	inactive	USP8P1 (USP8 pseudogene 1)	SID160774332
-0.541	71.1	0.243	74.6	inactive	USP8P1 (USP8 pseudogene 1)	SID160774333
-1.33	55.5	-1.17	84.5	inactive	GIGYF2 (GRB10 interacting GYF protein 2)	SID160737558
0.0502	82.9	-0.296	100	inactive	GIGYF2 (GRB10 interacting GYF protein 2)	SID160737559
0.951	101	0.581	96.7	inactive	GIGYF2 (GRB10 interacting GYF protein 2)	SID160737560
-0.496	72	-0.136	83.4	inactive	YIPF2 (Yip1 domain family member 2)	SID160748435
1.51	112	0.825	101	inactive	YIPF2 (Yip1 domain family member 2)	SID160748436
1.23	106	1.22	86.3	inactive	YIPF2 (Yip1 domain family member 2)	SID160748438
-0.477	72.4	-0.228	85.9	inactive	XRCC1 (X-ray repair cross complementing 1)	SID160718910
0.816	98.1	0.282	102	inactive	XRCC1 (X-ray repair cross complementing 1)	SID160718911
0.314	88.1	-0.209	104	inactive	XRCC1 (X-ray repair cross complementing 1)	SID160718912
-0.121	79.5	-0.244	94.7	inactive	OAT (ornithine aminotransferase)	SID160778327
0.944	101	1.22	81.6	inactive	OAT (ornithine aminotransferase)	SID160778328
1.74	117	1.82	80.6	inactive	OAT (ornithine aminotransferase)	SID160778329
1.08	103	0.155	111	inactive	CTSZ (cathepsin Z)	SID160741922
-0.0693	80.5	-0.369	99.1	inactive	CTSZ (cathepsin Z)	SID160742012
0.444	90.7	0.5	88.9	inactive	CTSZ (cathepsin Z)	SID160742120
3.13	144	2.97	73.7	active	ZNF680P1 (ZNF680 pseudogene 1)	SID160726870
-0.831	65.4	-0.385	80.8	inactive	ZNF680P1 (ZNF680 pseudogene 1)	SID160726871
-0.132	79.3	0.132	85.5	inactive	ZNF680P1 (ZNF680 pseudogene 1)	SID160772281
-3.72	7.92	3.52	3.5	inactive	UBC (ubiquitin C)	SID160718509
0.448	90.8	6.88	16.6	inactive	UBC (ubiquitin C)	SID160718511
1.56	113	0.757	103	inactive	UBC (ubiquitin C)	SID160718512
0.196	85.8	0.582	82.2	inactive	CACNG5 (calcium voltage-gated channel auxiliary subunit gamma 5)	SID160730960
-0.68	68.4	-0.00988	76.6	inactive	CACNG5 (calcium voltage-gated channel auxiliary subunit gamma 5)	SID160738350
0.0163	82.2	-0.787	113	inactive	CACNG5 (calcium voltage-gated channel auxiliary subunit gamma 5)	SID160738353
-1.62	49.6	-1.24	76.8	inactive	SLC39A14	SID160736443
-1.09	60.3	-1.47	99.1	inactive	SLC39A14	SID160736445
-0.0695	80.5	-0.0534	91.2	inactive	SLC39A14	SID160736446
1.61	114	1.21	92.6	inactive	FREY1 (Frey regulator of sperm-oocyte fusion 1)	SID160724841
0.767	97.1	1.05	82.3	inactive	FREY1 (Frey regulator of sperm-oocyte fusion 1)	SID160724842
3.26	147	2.17	92.7	active	FREY1 (Frey regulator of sperm-oocyte fusion 1)	SID160758056
-0.665	68.7	0.252	71.8	inactive	OVOS1BP (ovostatin 1B, pseudogene)	SID160726797
2.74	136	2.26	83.9	inactive	OVOS1BP (ovostatin 1B, pseudogene)	SID160726798
-1.3	56	-0.319	68.1	inactive	OVOS1BP (ovostatin 1B, pseudogene)	SID160772064
0.481	91.5	-0.265	110	inactive	ATP6V1B1 (ATPase H+ transporting V1 subunit B1)	SID160722071
-0.446	73	-0.209	86.2	inactive	ATP6V1B1 (ATPase H+ transporting V1 subunit B1)	SID160722081
-0.532	71.3	0.773	65	inactive	ATP6V1B1 (ATPase H+ transporting V1 subunit B1)	SID160722092
-1.13	59.5	-1.85	108	inactive	ARHGEF2 (Rho/Rac guanine nucleotide exchange factor 2)	SID160721661
0.203	85.9	-0.0978	98.5	inactive	ARHGEF2 (Rho/Rac guanine nucleotide exchange factor 2)	SID160721662
-0.949	63	-1.38	101	inactive	ARHGEF2 (Rho/Rac guanine nucleotide exchange factor 2)	SID160721663
0.306	88	0.648	82.9	inactive	CAT (catalase)	SID160736917
2.32	128	1.9	86.9	inactive	CAT (catalase)	SID160736927
0.565	93.1	0.287	96.5	inactive	CAT (catalase)	SID160736937
-0.18	78.3	-0.0929	89.7	inactive	C7 (complement C7)	SID160729970
0.214	86.1	1.37	67.1	inactive	C7 (complement C7)	SID160729979
0.654	94.9	0.642	89.6	inactive	C7 (complement C7)	SID160729988
-0.204	77.8	-0.705	105	inactive	RBAK (RB associated KRAB zinc finger)	SID160746705
0.37	89.2	0.336	91.3	inactive	RBAK (RB associated KRAB zinc finger)	SID160746706
-1.22	57.5	-1.27	89.9	inactive	RBAK (RB associated KRAB zinc finger)	SID160746707
-1.6	50.1	-1.02	73.3	inactive	LMNA (lamin A/C)	SID160776661
-1.21	57.8	-0.918	82.3	inactive	LMNA (lamin A/C)	SID160776662
-1.9	44	0.878	39	inactive	LMNA (lamin A/C)	SID160776663
-0.268	76.5	-0.663	102	inactive	EMC4 (ER membrane protein complex subunit 4)	SID160740378
-0.992	62.2	-1.07	92.1	inactive	EMC4 (ER membrane protein complex subunit 4)	SID160740379
-2.34	35.2	-2.4	74.2	inactive	EMC4 (ER membrane protein complex subunit 4)	SID160740380

Part of the list above, reduced to “total luciferase, % of control”:
ATP6V1B1 (ATPase H+ transporting V1 subunit B1) [SID160722092]	71.3
ARHGEF2 (Rho/Rac guanine nucleotide exchange factor 2) [SID160721661]	59.5
ARHGEF2 (Rho/Rac guanine nucleotide exchange factor 2) [SID160721662]	85.9
ARHGEF2 (Rho/Rac guanine nucleotide exchange factor 2) [SID160721663]	63
